Results taken from publication PMC5355280.
Results are given in words; binding and its absence hold for the method and conditions named. For part of these data: In cells and extracts the contact can be indirect. Some results given as binding are weak or reduced against the parent protein; the word gives no strength.

By UniProt entry, the sequences of proteins in these tests, tags left out. Residues count along the entry.
UniProt P08476, residues 311-426: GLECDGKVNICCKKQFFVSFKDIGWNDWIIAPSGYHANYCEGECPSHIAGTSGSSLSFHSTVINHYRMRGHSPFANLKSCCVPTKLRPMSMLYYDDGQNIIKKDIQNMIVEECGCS
UniProt P22004, residues 375-513: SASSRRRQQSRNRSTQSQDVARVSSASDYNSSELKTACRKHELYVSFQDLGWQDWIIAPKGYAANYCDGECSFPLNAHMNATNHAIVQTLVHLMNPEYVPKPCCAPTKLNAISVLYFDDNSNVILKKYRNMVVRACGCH

T1: Purified recombinant protein of Homo sapiens CHRDL2 (TP320245) (human) (UniProt Q6WN34)
T1 sequence: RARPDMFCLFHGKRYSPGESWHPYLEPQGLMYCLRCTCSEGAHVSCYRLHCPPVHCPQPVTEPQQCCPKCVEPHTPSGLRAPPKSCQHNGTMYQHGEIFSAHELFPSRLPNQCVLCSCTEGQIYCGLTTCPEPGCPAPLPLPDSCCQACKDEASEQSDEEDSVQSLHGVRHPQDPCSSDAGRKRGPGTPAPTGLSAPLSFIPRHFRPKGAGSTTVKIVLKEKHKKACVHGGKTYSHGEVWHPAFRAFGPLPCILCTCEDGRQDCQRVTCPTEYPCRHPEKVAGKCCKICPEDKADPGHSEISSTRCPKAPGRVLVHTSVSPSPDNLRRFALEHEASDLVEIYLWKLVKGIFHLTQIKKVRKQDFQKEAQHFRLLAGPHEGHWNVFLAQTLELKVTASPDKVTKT

T2: Chordin-like 2 (CHRDL2), secreted, in HCT116 cell culture medium (human (endogenous in HCT116)) (UniProt Q6WN34)
T2 sequence: T1 sequence

B1: BMP2, secreted mature form, in HCT116 cell culture medium (ligand, UniProt P12643 283-396)
chain: QAKHKQRKRLKSSCKRHPLYVDFSDVGWNDWIVAPPGYHAFYCHGECPFPLADHLNSTNHAIVQTLVNSVNSKIPKACCVPTELSAISMLYLDENEKVVLKNYQDMVVEGCGCR
B2: BMP4, secreted mature form, in HCT116 cell culture medium (ligand, UniProt P12644 293-408)
chain: SPKHHSQRARKKNKNCRRHSLYVDFSDVGWNDWIVAPPGYQAFYCHGDCPFPLADHLNSTNHAIVQTLVNSVNSSIPKACCVPTELSAISMLYLDEYDKVVLKNYQEMVVEGCGCR
B3: Purified recombinant protein of Homo sapiens BMP2 (TP750012) (ligand, UniProt P12643 283-396)
chain: B1 chain

Legend:
[1] = biological target: T1, Purified recombinant protein of Homo sapiens CHRDL2 (TP320245) (human); test: co-IP; CHRDL2 and mature recombinant human Activin A (Supplementary Figure S2C); details not shown; both purified
[2] = biological target: T2, Chordin-like 2 (CHRDL2), secreted, in HCT116 cell culture medium (human (endogenous in HCT116)); test: co-IP; cell culture media, CHRDL2 and secreted Activin A (Supplementary Figure S2A, S2B); details not shown
[3] = biological target: T2, Chordin-like 2 (CHRDL2), secreted, in HCT116 cell culture medium (human (endogenous in HCT116)); test: co-IP; HCT116 culture media concentrated 10-fold, pre-cleared with normal IgG 3 h at 4°C; incubated with anti-CHRDL2, anti-BMP2, anti-BMP4, anti-BMP6 or normal IgG overnight at 4°C, protein A+G agarose beads 2 h at 4°C, five washes; western blot
[4] = biological target: T1, Purified recombinant protein of Homo sapiens CHRDL2 (TP320245) (human); test: co-IP; mixture of recombinant CHRDL2 and recombinant BMP2, IP with anti-CHRDL2; done similarly to the co-IP of culture media; both purified

Molecule | binding [3] | further results
mature recombinant human Activin A (from UniProt P08476 311-426) (ligand) | – | binding [1]: binds
Activin A, secreted mature form, in cell culture medium (from UniProt P08476 311-426) (ligand) | – | binding [2]: binds
BMP6, secreted mature form, in HCT116 cell culture medium (from UniProt P22004 375-513) (ligand) | binds | –
B1 | binds | –
B2 | binds | –
B3 | – | binding [4]: binds
